# Measurements from patent US20240228599A1.
# The chains behind the UniProt entries cited, without tags or fusion partners. Residues count along the entry.
# UniProt P00751, residues 26-764: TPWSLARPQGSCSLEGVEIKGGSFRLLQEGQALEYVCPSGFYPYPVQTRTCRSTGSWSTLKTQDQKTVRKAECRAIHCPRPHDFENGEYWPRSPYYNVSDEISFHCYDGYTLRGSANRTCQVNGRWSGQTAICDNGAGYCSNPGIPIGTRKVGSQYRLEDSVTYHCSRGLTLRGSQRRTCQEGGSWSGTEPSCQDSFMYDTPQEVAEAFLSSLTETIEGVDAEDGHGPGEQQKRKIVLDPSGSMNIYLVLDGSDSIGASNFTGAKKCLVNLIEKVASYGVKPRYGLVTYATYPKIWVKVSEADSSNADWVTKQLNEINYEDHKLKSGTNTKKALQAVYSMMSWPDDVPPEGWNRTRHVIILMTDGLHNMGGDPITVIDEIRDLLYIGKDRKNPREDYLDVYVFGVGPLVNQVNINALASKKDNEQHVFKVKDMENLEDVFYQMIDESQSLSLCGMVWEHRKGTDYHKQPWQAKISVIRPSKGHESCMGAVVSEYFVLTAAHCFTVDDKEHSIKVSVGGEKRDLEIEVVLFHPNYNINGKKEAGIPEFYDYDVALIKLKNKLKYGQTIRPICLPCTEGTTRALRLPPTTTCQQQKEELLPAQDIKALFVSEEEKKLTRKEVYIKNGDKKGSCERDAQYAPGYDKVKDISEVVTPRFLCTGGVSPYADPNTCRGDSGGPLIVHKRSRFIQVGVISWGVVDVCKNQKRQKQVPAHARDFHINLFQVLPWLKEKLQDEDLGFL
# Results are given in words; binding and its absence hold for the method and conditions named. Some entries that bind do so weakly or less than the wild type.
# How the values were obtained:
# [1] = target: purified human Factor Bb (human) (UniProt P00751); test: ELISA, human Factor Bb coated at 1 µg/mL
# [2] = target: purified human Factor Bb (human) (UniProt P00751); test: antigen-capture ELISA
# [3] = target: purified human Factor Bb (human) (UniProt P00751); test: ELISA; human Factor Bb coated at 1 µg/mL, mAb in 3-fold dilutions from 10 µg/mL, HRP goat anti-mouse, OD450
# [4] = target: purified human Factor Bb (human) (UniProt P00751); test: ELISA on Factor Bb coated plate (pharmacokinetic assay)
# full-length Factor B [5] = target: full-length Factor B (UniProt P00751); test: antigen-capture ELISA, biotinylated factor B at 1 µg/mL
# full-length Factor B [6] = target: full-length Factor B (UniProt P00751); test: size exclusion chromatography, complex in solution
# [7] = target: purified human Factor Bb (human) (UniProt P00751); test: antigen-capture ELISA, biotinylated factor Bb at 1 µg/mL
binding [1],binding [2],binding [3],binding [4],binding (full-length Factor B [5]),binding (full-length Factor B [6]),binding [7],Binder
binds,binds,binds,–,–,–,–,"anti-factor Bb monoclonal antibody M10 (antibody, V domains shown) VH: EVQLVESGGALVKPGGSLKLSCAASGFTFSNYAMSWVRQTPEKRLEWVATISNRGSYTYYPDSVKGRFTISRDNAKNTLYLQMSSLRSEDTALYYCARERPMDYWGQGTSVTVSS VL: DIVMTQSHKFMSTSVGDRVSITCKASQDVGTAVAWYQQKPGQSPKLLIYWASTRHTGVPDRFTGSGSGTDFTLTITNVQSEDLAVYFCHQHSSNPLTFGAGTKLELK"
binds,binds,binds,–,–,–,–,"anti-factor Bb monoclonal antibody M18 (antibody, V domains shown) VH: EVQLVESGGALVKPGGSLKLSCAASGFTFSNYAMSWVRQTPEKRLEWVATISNRGSYTYYPDSVKGRFTISRDNAKNTLYLQMSSLRSEDTALYYCARERPMDYWGQGTSVTVSS VL: DIVMTQSHKFMSTSVGDRVSITCKASQDVGTAVAWYQQKPGQSPKLLIYWASTRHTGVPDRFTGSGSGTDFTLTITNVQSEDLAVYFCHQHSSNPLTFGAGTKLELK"
–,–,–,binds,–,–,–,"chimeric M10 (antibody, human IgG4, V domains shown) VH: EVQLVESGGALVKPGGSLKLSCAASGFTFSNYAMSWVRQTPEKRLEWVATISNRGSYTYYPDSVKGRFTISRDNAKNTLYLQMSSLRSEDTALYYCARERPMDYWGQGTSVTVSS VL: DIVMTQSHKFMSTSVGDRVSITCKASQDVGTAVAWYQQKPGQSPKLLIYWASTRHTGVPDRFTGSGSGTDFTLTITNVQSEDLAVYFCHQHSSNPLTFGAGTKLELK"
binds,–,binds,–,binds,binds,–,"anti-factor Bb monoclonal antibody M4 (antibody, V domains shown) VH: EVQLQQSGPELVKPGASVKMSCKASGYSFTDYLMNWVKQSHGKSLEWIGRINPYNGDAFYNQRFKGKATLTVDKSSSTAHMELRSLTSEDSALYYCARLENDYGFTYWGQGTLVTVSA VL: DIVMTQAAFSNPVTLGTSASISCSSSKSLLHSNGITYLYWYLQRPGQSPQLLIYRMSNLASGVPDRFSGSGSGTDFTLRISRVEAEDVGVYYCAQMLERPWTFGGGTKLEIK"
binds,–,binds,–,binds,binds,–,"anti-factor Bb monoclonal antibody M12 (antibody, V domains shown) VH: EVQLQQSGPELVKPGASVKMSCKASGYSFTDYLMNWVKQSHGKSLEWIGRINPYNGDAFYNQRFKGKATLTVDKSSSTAHMELRSLTSEDSALYYCARLENDYGFTYWGQGTLVTVSA VL: DIVMTQAAFSNPVTLGTSASISCSSSKSLLHSNGITYLYWYLQRPGQSPQLLIYRMSNLASGVPDRFSGSGSGTDFTLRISRVEAEDVGVYYCAQMLERPWTFGGGTKLEIK"
–,–,–,binds,–,–,–,"chimeric M4 (antibody, human IgG4, V domains shown) VH: EVQLQQSGPELVKPGASVKMSCKASGYSFTDYLMNWVKQSHGKSLEWIGRINPYNGDAFYNQRFKGKATLTVDKSSSTAHMELRSLTSEDSALYYCARLENDYGFTYWGQGTLVTVSA VL: DIVMTQAAFSNPVTLGTSASISCSSSKSLLHSNGITYLYWYLQRPGQSPQLLIYRMSNLASGVPDRFSGSGSGTDFTLRISRVEAEDVGVYYCAQMLERPWTFGGGTKLEIK"
binds,binds,binds,–,–,–,binds,"anti-factor Bb monoclonal antibody M17 (antibody, V domains shown) VH: EVQLVESGGVLVKPGGSLKLSCAASGFTFSNFAMSWVRQTPAKRLEWVATISNGGGYTYYPDSVQGRFTISRDNANNTLYLQMSSLRSEDTALYYCARIYYGSSYEDWFAYWGQGTLVTVSA VL: DIVMTPSHKFMSTSVGDRVSITCKASQDVGSAVAWYQQKPGHSPKLLIFWASTRHTGVPDRFTGSGSGTDFTLTISNVQSEDLADYFCQQYSSYPYTFGGGTRLEIK"
